These are yes or no findings as the source states them, for the method shown.
Target: Recombinant human ficolin-3 protein (human) (UniProt O75636)
Assay: SPR; Biacore T200; recombinant ficolin-3 amine-coupled to a CM5 chip (15,300 RU); reference flow cell with 12000 RU of BSA; analytes injected at 30 μl/min for 150 s; 0.01 M HEPES pH 7.4, 0.15 M NaCl, 0.005% P20, 5 mM MgCl2, 5 mM CaCl2; regeneration 0.5% SDS; both purified

Sequences of proteins named here, by UniProt entry; tags and fusion partners are left off. Residues count along the entry.
UniProt O75636, residues 24-299: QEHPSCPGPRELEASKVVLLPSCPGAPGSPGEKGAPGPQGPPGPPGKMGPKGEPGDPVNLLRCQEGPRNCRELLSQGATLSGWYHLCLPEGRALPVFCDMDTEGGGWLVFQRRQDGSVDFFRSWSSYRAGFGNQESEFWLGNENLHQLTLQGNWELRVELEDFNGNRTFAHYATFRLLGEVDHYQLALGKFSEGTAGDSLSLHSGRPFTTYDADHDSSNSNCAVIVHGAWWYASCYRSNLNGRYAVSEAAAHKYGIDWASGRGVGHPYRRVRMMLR
UniProt P11226, residues 21-248: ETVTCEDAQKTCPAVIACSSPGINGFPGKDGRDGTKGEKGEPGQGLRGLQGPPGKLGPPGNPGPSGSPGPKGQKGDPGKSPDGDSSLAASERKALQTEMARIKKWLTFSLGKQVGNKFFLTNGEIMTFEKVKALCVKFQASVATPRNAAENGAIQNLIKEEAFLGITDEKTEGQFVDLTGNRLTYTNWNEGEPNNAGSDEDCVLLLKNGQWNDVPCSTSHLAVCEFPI

- binding: no binding
Substance: Recombinant human MBL protein (from UniProt P11226 21-248)

From PMC4883783
